Data as given in PubChem BioAssay AID1159584 (Peter MacCallum Cancer Centre, 2016).

Purpose: 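Genes whose loss is lethal only together with E-cadherin loss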 (primary screen)
Cells: human MCF10A breast epithelial cells, parental and CDH1-null
Reagent: siRNA against human genes
Read-out: 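ATP luminescence (CellTiter-Glo) viability per line relative to mean mock wells over all plates, and the ratio of CDH1-null to parental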
Direction: CDH1-null / parental viability ratio: higher = CDH1-null cells survive relatively better than parental
This is one part, drawn at random, of about 18,000 deposited reagents. Reagents against one gene are numbered here. Not all columns of the deposit are shown. The record does not give: the amount of reagent, the time to read-out.

The opening 4 entries as a preview:
{"target gene":"PABPC1L2A (poly(A) binding protein cytoplasmic 1 like 2A)","reagent no.":1,"CDH1-null / parental viability ratio":1.05}
{"target gene":"IL20 (interleukin 20)","reagent no.":1,"CDH1-null / parental viability ratio":0.93}
{"target gene":"NPAS4 (neuronal PAS domain protein 4)","reagent no.":1,"CDH1-null / parental viability ratio":1.26}
{"target gene":"SMARCD1 (SWI/SNF related BAF chromatin remodeling complex subunit D1)","reagent no.":1,"CDH1-null / parental viability ratio":0.75}

The listing, from the first entry:
{"target gene":"PABPC1L2A (poly(A) binding protein cytoplasmic 1 like 2A)","reagent no.":1,"CDH1-null / parental viability ratio":1.05}
{"target gene":"IL20 (interleukin 20)","reagent no.":1,"CDH1-null / parental viability ratio":0.93}
{"target gene":"NPAS4 (neuronal PAS domain protein 4)","reagent no.":1,"CDH1-null / parental viability ratio":1.26}
{"target gene":"SMARCD1 (SWI/SNF related BAF chromatin remodeling complex subunit D1)","reagent no.":1,"CDH1-null / parental viability ratio":0.75}
{"target gene":"EIF2B3 (eukaryotic translation initiation factor 2B subunit gamma)","reagent no.":1,"CDH1-null / parental viability ratio":0.93}
{"target gene":"KRT16 (keratin 16)","reagent no.":1,"CDH1-null / parental viability ratio":0.88}
{"target gene":"OR4C16 (olfactory receptor family 4 subfamily C member 16)","reagent no.":1,"CDH1-null / parental viability ratio":0.81}
{"target gene":"HSD17B2 (hydroxysteroid 17-beta dehydrogenase 2)","reagent no.":1,"CDH1-null / parental viability ratio":0.87}
{"target gene":"RBM38 (RNA binding motif protein 38)","reagent no.":1,"CDH1-null / parental viability ratio":1.4}
{"target gene":"STAT6 (signal transducer and activator of transcription 6)","reagent no.":1,"CDH1-null / parental viability ratio":1.04}
{"target gene":"AKAP10 (A-kinase anchoring protein 10)","reagent no.":1,"CDH1-null / parental viability ratio":1.08}
{"target gene":"OR4D11 (olfactory receptor family 4 subfamily D member 11)","reagent no.":1,"CDH1-null / parental viability ratio":0.91}
{"target gene":"TNFSF9 (TNF superfamily member 9)","reagent no.":1,"CDH1-null / parental viability ratio":1.36}
{"target gene":"RPS6KA3 (ribosomal protein S6 kinase A3)","reagent no.":1,"CDH1-null / parental viability ratio":0.88}
{"target gene":"MLNR (motilin receptor)","reagent no.":1,"CDH1-null / parental viability ratio":0.7}
{"target gene":"ZNF613 (zinc finger protein 613)","reagent no.":1,"CDH1-null / parental viability ratio":1.02}
{"target gene":"VKORC1 (vitamin K epoxide reductase complex subunit 1)","reagent no.":1,"CDH1-null / parental viability ratio":0.99}
{"target gene":"BAG1 (BAG cochaperone 1)","reagent no.":1,"CDH1-null / parental viability ratio":0.87}
{"target gene":"DNA2 (DNA replication helicase/nuclease 2)","reagent no.":1,"CDH1-null / parental viability ratio":0.83}
{"target gene":"UFSP1 (UFM1 specific peptidase 1)","reagent no.":1,"CDH1-null / parental viability ratio":0.9}
{"target gene":"ZNF280C (zinc finger protein 280C)","reagent no.":1,"CDH1-null / parental viability ratio":0.99}
{"target gene":"RAC3 (Rac family small GTPase 3)","reagent no.":1,"CDH1-null / parental viability ratio":1.02}
{"target gene":"SMARCC1 (SWI/SNF related BAF chromatin remodeling complex subunit C1)","reagent no.":1,"CDH1-null / parental viability ratio":0.79}
{"target gene":"SEMA6D (semaphorin 6D)","reagent no.":1,"CDH1-null / parental viability ratio":1.34}
{"target gene":"AGER (advanced glycosylation end-product specific receptor)","reagent no.":1,"CDH1-null / parental viability ratio":0.81}
{"target gene":"TM2D2 (TM2 domain containing 2)","reagent no.":1,"CDH1-null / parental viability ratio":0.91}
{"target gene":"IRF8 (interferon regulatory factor 8)","reagent no.":1,"CDH1-null / parental viability ratio":1.23}
{"target gene":"SH3BGRL3 (SH3 domain binding glutamate rich protein like 3)","reagent no.":1,"CDH1-null / parental viability ratio":0.87}
{"target gene":"GABRR1 (gamma-aminobutyric acid type A receptor subunit rho1)","reagent no.":1,"CDH1-null / parental viability ratio":1.49}
{"target gene":"NHSL2 (NHS like 2)","reagent no.":1,"CDH1-null / parental viability ratio":0.95}
{"target gene":"NHSL2 (NHS like 2)","reagent no.":2,"CDH1-null / parental viability ratio":1.02}
{"target gene":"UNC93B1 (unc-93B1 regulator of TLR signaling)","reagent no.":1,"CDH1-null / parental viability ratio":1.02}
{"target gene":"RNF123 (ring finger protein 123)","reagent no.":1,"CDH1-null / parental viability ratio":0.97}
{"target gene":"SHH (sonic hedgehog signaling molecule)","reagent no.":1,"CDH1-null / parental viability ratio":1.25}
{"target gene":"EPAS1 (endothelial PAS domain protein 1)","reagent no.":1,"CDH1-null / parental viability ratio":1.12}
